Test results reported in patent publication US20160130315A1.
No constants are given. Whether binding was seen depends on the method and setting. Binding can be weak; no strength is given.

Amino acid sequences for entries named in this document (tags omitted). A change or cut given only in a name is not applied to a line headed by its entry.
UniProt O60462: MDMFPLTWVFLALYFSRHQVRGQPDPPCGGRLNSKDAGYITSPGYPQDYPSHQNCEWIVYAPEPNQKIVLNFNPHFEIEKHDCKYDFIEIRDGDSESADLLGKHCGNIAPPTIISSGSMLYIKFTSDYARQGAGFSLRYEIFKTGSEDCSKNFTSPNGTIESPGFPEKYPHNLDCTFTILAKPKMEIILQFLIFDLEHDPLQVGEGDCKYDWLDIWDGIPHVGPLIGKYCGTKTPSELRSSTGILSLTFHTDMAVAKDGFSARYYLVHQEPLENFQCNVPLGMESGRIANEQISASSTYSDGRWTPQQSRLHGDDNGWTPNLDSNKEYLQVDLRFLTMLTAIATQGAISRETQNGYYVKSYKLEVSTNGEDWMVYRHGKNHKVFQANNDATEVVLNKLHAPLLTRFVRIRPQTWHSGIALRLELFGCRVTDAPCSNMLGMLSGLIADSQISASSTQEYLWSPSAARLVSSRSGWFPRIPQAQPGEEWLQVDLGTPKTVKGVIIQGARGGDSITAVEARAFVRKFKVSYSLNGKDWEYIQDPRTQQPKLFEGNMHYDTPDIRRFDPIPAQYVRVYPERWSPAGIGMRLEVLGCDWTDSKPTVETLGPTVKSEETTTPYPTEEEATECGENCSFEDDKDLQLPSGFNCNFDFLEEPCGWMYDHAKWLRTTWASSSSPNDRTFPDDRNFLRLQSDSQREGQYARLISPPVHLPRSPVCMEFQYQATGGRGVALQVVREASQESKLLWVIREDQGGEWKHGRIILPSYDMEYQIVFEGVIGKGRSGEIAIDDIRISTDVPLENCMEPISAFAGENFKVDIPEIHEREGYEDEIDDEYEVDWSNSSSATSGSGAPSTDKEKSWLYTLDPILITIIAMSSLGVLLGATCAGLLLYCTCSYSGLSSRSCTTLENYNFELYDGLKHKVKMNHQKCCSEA
UniProt O14786: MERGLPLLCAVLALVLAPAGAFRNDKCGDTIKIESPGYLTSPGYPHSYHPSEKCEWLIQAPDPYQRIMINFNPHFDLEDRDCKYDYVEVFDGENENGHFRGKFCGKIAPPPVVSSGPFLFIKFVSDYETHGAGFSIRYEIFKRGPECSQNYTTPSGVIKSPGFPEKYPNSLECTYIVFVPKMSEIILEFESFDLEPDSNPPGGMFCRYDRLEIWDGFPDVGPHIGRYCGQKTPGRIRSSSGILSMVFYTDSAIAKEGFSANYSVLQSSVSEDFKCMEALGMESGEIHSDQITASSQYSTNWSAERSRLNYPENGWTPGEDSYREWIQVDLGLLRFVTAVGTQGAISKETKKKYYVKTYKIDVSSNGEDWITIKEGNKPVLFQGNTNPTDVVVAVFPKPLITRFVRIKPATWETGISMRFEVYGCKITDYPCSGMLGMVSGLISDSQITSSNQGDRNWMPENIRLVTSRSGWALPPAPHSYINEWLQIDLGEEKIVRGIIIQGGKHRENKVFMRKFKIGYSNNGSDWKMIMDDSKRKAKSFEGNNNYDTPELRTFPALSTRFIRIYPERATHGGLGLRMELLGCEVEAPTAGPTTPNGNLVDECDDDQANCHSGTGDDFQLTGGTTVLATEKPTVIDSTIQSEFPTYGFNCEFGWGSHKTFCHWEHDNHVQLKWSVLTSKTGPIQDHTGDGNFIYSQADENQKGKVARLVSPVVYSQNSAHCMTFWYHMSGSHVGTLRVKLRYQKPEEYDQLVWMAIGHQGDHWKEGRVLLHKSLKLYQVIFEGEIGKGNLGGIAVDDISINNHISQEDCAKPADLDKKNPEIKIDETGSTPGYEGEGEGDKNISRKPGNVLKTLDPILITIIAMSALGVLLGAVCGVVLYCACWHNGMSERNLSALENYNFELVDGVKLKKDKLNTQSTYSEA
UniProt Q13275: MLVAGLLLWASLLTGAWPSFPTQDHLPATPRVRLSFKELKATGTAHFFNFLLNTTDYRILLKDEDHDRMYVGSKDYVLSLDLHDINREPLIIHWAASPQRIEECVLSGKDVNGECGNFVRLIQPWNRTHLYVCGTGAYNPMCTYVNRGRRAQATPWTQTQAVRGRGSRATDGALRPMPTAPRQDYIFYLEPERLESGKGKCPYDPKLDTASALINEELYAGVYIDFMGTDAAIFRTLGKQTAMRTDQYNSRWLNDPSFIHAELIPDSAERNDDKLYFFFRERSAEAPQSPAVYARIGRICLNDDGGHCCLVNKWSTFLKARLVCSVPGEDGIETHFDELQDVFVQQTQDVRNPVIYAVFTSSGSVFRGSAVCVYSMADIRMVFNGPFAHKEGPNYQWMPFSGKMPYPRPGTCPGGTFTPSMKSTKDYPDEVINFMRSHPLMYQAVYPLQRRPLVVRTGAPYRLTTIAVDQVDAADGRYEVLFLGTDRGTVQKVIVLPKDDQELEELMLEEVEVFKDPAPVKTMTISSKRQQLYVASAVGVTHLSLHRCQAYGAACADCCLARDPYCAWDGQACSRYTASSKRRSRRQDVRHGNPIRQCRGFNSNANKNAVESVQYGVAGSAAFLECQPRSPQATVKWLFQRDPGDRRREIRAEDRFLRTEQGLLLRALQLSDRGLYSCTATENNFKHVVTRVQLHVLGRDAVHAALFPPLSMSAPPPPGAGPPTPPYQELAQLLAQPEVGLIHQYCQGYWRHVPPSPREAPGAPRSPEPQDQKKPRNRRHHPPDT

What was measured:
[1] = target: b1b2 domains (275-595) of neuropilin-2 (UniProt O60462); test: ELISA: target coated on the plate, biotinylated binder at 100 nM, anti-biotin-AP and pNPP, absorbance at 405 nm [B]
[2] = target: b1b2 domains (273-586) of neuropilin-1 (UniProt O14786); test: as above
[3] = target: b1b2 domains (275-595) of neuropilin-2 (UniProt O60462); test: ELISA, plate-bound b1b2 domain
[4] = target: b1b2 domains (273-586) of neuropilin-1 (UniProt O14786); test: ELISA, plate-bound b1b2 domain

binding [1]: binds | binding [2]: binds | binding [3]: binds | binding [4]: binds
Substance: Sema3F (19-779) (from UniProt Q13275) (ligand)
